Experimental data published in US20180360972A1, “THERAPEUTIC COMPOUNDS” (REGENTS OF THE UNIVERSITY OF MINNESOTA, priority 2017, published 2018).
Read-outs that look alike come from different tables or passages of the source. At least one peptide structure holds a part that was inferred or is arguable (an end, a ring closure or a residue). Some entries share one result that the patent states for a list of compounds.

Protein sequences, listed by entry. Tags and fused reporters are not part of them.
UniProt P56450, whole entry: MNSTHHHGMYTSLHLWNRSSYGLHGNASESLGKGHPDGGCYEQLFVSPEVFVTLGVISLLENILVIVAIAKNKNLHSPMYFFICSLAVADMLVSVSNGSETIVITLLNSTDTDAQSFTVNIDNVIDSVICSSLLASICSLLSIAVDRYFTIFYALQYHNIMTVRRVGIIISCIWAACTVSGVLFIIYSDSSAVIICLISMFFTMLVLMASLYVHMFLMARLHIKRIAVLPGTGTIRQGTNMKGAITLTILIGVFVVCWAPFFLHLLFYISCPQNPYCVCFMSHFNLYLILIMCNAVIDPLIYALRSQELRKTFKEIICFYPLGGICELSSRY

What was measured:
[1] = target: mMC4R-NanoLuc and mMC4R-HaloTag homodimer (Mus musculus, UniProt P56450); assay: NanoBRET ligand-dependent modulation of BRET signal; settings: for reduction in BRET signal compared to basal signal: ligand at 10 μM
male wild type mice = format: in vivo; settings: nocturnal paradigm
Experimental: (§1) All experiments were performed in accordance with the Institutional Animal Care and Use Committee (IACUC) at the University of Minnesota. Female and male littermates with mixed background from C57BL/6J and 129/Sv inbred strains were 8 weeks old at the time of surgeries. Mice were individually housed after surgeries and for the remainder of the experiment. Mice were maintained on a 12 hr light/dark cycle (Lights off was at 11:59 AM) in a temperature controlled room (23-25° C.). In the nocturnal feeding paradigm, mice had free access to normal chow (Harlan Teklad 2018 Diet: 18.6% crude protein, 6.2% crude fat, 3.5% crude fiber, with energy density of 3.1 kcal/g). […] Mice had free access to tap water throughout all the experiments. The cannula placement validation studies and conventional cage studies were performed in standard mouse polycarbonate conventional cages provided by University of Minnesota's Research Animal Resources (RAR). Weekly cage changes were conducted by lab research staff.
(§2) Mice were anesthetize with a mixture of ketamine (100 mg/kg) and xylazine (5 mg/kg) and were positioned in a stereotaxic apparatus (David Kopf Instruments). A 26-gauge cannula (Cat# 81C315GS4SPC; PlasticsOne, Roanoke, Va.) was inserted in the lateral cerebral ventricle at the coordinates 1.0 mm lateral and 0.46 mm posterior to bregma and 2.3 mm ventral to the skull (Franklin, K. B. J. & Paxinos, G. The Mouse Brain in Stereotaxic Coordinates. (Academic Press, 1997)).
Each mouse was administered hPYY and saline on different days following a crossover design in the nocturnal feeding paradigm. In the nocturnal paradigm, compound is administered 2 hours prior to lights out with free access to food and water throughout the entire experiment. There was at least a 4 day washout period between administration to ensure that normal feeding patterns and body weight returned. Food intake and body weight were manually measured 2, 4, and 6 hours after hPYY or saline administration. A mouse with a validated cannula placement for the TSE cage experiments consumed at least 1.0 g more after hPYY administration compared to saline administration 4 hours post-administration.
(§3) As stated above, conventional cage experiments were performed in standard mouse polycarbonate conventional cages. […] All experiments followed a cross-over paradigm in which the mouse received saline and compound on different days with a washout period in between each treatment. Statistical analysis was performed using SPSS V23 software (IBM) using a multivariate general linear model followed by a Bonferroni's post hoc test. Results are presented as Mean±SEM. Statistically significant was considered p<0.05.

male MC3RKO mice = assay: ICV administration, TSE metabolic cages, male MC3RKO mice; format: in vivo; settings: nocturnal paradigm; 5 nmols
Experimental: as §1
Mice were anesthetize with a mixture of ketamine (100 mg/kg) and xylazine (5 mg/kg) and were positioned in a stereotaxic apparatus (David Kopf Instruments). […]

male MC4RKO mice = assay: ICV administration, conventional cages, male MC4RKO mice; format: in vivo; settings: nocturnal paradigm
Experimental: as §1, §2
as §3, with “p<0.05. […]” for “p<0.05.”

## CC(=O)N[C@@H](Cc1c[nH]cn1)C(=O)N[C@H](Cc1ccccc1)C(=O)N[C@@H](CCCNC(=N)N)C(=O)N[C@@H](Cc1c[nH]c2ccccc12)C(=O)NCCCOCCOCCOCCCNC(=O)COCC(=O)N[C@@H](Cc1c[nH]cn1)C(=O)N[C@H](Cc1ccc2ccccc2c1)C(=O)N[C@@H](CCCNC(=N)N)C(=O)N[C@@H](Cc1c[nH]c2ccccc12)C(N)=O [CJL-5-58, Ac-His-DPhe-Arg-Trp-(PEDG20)-His-DNal(2′)-Arg-Trp-NH2]
[1]
  reduction in BRET signal compared to basal signal: 7-8%

## CC(=O)N[C@@H](Cc1c[nH]cn1)C(=O)N[C@H](Cc1ccc2ccccc2c1)C(=O)N[C@@H](CCCNC(=N)N)C(=O)N[C@@H](Cc1c[nH]c2ccccc12)C(=O)NCCCOCCOCCOCCCNC(=O)COCC(=O)N[C@@H](Cc1c[nH]cn1)C(=O)N[C@H](Cc1ccccc1)C(=O)N[C@@H](CCCNC(=N)N)C(=O)N[C@@H](Cc1c[nH]c2ccccc12)C(N)=O [CJL-1-124, Ac-His-DNal(2′)-Arg-Trp-(PEDG20)-His-DPhe-Arg-Trp-NH2]
Male wild type mice; 2.5 nmol CJL-1-124
  energy expenditure vs saline: significantly increased the energy expenditure 15, 18, 20, and 24 hours post compound administration
Male wild type mice; 2.5 nmol or 5 nmol CJL-1-124
  activity vs saline: No significant effect
  food intake vs saline: No significant effect
  water intake vs saline: No significant effect
Male wild type mice; 2.5 and 5 nmol CJL-1-124
  energy expenditure vs saline: lowered by both the 2.5 nmol and the 5 nmol dose of CJL-1-124 for the first 3 hours after administration
Male MC3RKO mice
  activity vs saline: significantly increased at 15 hours
Male MC4RKO mice; 2.5 nmol CJL-1-124
  food intake vs saline: increase in food intake observed 2 hours after administration
Male MC4RKO mice; 5.0 and 2.5 nmols CJL-1-124
  body weight vs saline: minimal significant change
  food intake vs saline: minimal significant change
[1]
  reduction in BRET signal compared to basal signal: 7-8%

## CC(=O)N[C@@H](Cc1c[nH]cn1)C(=O)N[C@H](Cc1ccccc1)C(=O)N[C@@H](CCCNC(=N)N)C(=O)N[C@@H](Cc1c[nH]c2ccccc12)C(=O)NCCCOCCOCCOCCCNC(=O)COCC(=O)N[C@@H](Cc1c[nH]cn1)C(=O)N[C@H](Cc1ccccc1)C(=O)N[C@@H](CCCNC(=N)N)C(=O)N[C@@H](Cc1c[nH]c2ccccc12)C(N)=O [CJL-1-87]
[1]; 10^−5, 10^−7 and 10^−9 M vs assay buffer
  change in BRET signal (in words): dose dependent decrease in BRET signal
